The source of these data is PMC1444913.

No constants are given. Whether binding was seen depends on the method and setting. In cells and extracts the contact can be indirect.

In test [1] the target is kinesin-1 heavy chain (human (endogenous in T84 and SK-CO-15)). The test is described as follows: co-IP; T84 cell lysates (50 mM PIPES, 50 mM HEPES, 1 mM EDTA, 2 mM MgSO4, 1% TX-100, 0.5% Igepal, pH 7.0) incubated overnight at 4°C with anti-kinesin-1 heavy chain mAb H1 or anti-kinesin-2 heavy chain mAb K2.4, Protein G-Sepharose; Western blot for junctional proteins. (Immunoblotting shows a protein as a band on a membrane.)

In test [2] the target is kinesin-2 heavy chain (human (endogenous in T84)). Described as above.

B1: junctional adhesion molecule (JAM)-A (protein, UniProt Q9Y624 28-299)
chain: SVTVHSSEPEVRIPENNPVKLSCAYSGFSSPRVEWKFDQGDTTRLVCYNNKITASYEDRVTFLPTGITFKSVTREDTGTYTCMVSEEGGNSYGEVKVKLIVLVPPSKPTVNIPSSATIGNRAVLTCSEQDGSPPSEYTWFKDGIVMPTNPKSTRAFSNSSYVLNPTTGELVFDPLSASDTGEYSCEARNGYGTPMTSNAVRMEAVERNVGVIVAAVLVTLILLGILVFGIWFAYSRGHFDRTKKGTSSKKVIYSQPSARSEGEFKQTSSFLV
Turning to B1, the binding result in test [1] and in test [2] was “no binding” in each case.

B2: p120 catenin (protein, UniProt O60716 1-968)
chain: MDDSEVESTASILASVKEQEAQFEKLTRALEEERRHVSAQLERVRVSPQDANPLMANGTLTRRHQNGRFVGDADLERQKFSDLKLNGPQDHSHLLYSTIPRMQEPGQIVETYTEEDPEGAMSVVSVETSDDGTTRRTETTVKKVVKTVTTRTVQPVAMGPDGLPVDASSVSNNYIQTLGRDFRKNGNGGPGPYVGQAGTATLPRNFHYPPDGYSRHYEDGYPGGSDNYGSLSRVTRIEERYRPSMEGYRAPSRQDVYGPQPQVRVGGSSVDLHRFHPEPYGLEDDQRSMGYDDLDYGMMSDYGTARRTGTPSDPRRRLRSYEDMIGEEVPSDQYYWAPLAQHERGSLASLDSLRKGGPPPPNWRQPELPEVIAMLGFRLDAVKSNAAAYLQHLCYRNDKVKTDVRKLKGIPVLVGLLDHPKKEVHLGACGALKNISFGRDQDNKIAIKNCDGVPALVRLLRKARDMDLTEVITGTLWNLSSHDSIKMEIVDHALHALTDEVIIPHSGWEREPNEDCKPRHIEWESVLTNTAGCLRNVSSERSEARRKLRECDGLVDALIFIVQAEIGQKDSDSKLVENCVCLLRNLSYQVHREIPQAERYQEAAPNVANNTGPHAASCFGAKKGKDEWFSRGKKPIEDPANDTVDFPKRTSPARGYELLFQPEVVRIYISLLKESKTPAILEASAGAIQNLCAGRWTYGRYIRSALRQEKALSAIADLLTNEHERVVKAASGALRNLAVDARNKELIGKHAIPNLVKNLPGGQQNSSWNFSEDTVISILNTINEVIAENLEAAKKLRETQGIEKLVLINKSGNRSEKEVRAAALVLQTIWGYKELRKPLEKEGWKKSDFQVNLNNASRSQSSHSYDDSTLPLIDRNQKSDKKPDREEIQMSNMGSNTKSLDNNYSTPNERGDHNRTLDRSGDLGDMEPLKGTTPLMQDEGQESLEEELDVLVLDDEGGQVSYPSMQKI
Take B2: the binding result in test [2] is recorded as “no binding”.

B3: occludin (protein, UniProt Q16625 1-522)
chain: MSSRPLESPPPYRPDEFKPNHYAPSNDIYGGEMHVRPMLSQPAYSFYPEDEILHFYKWTSPPGVIRILSMLIIVMCIAIFACVASTLAWDRGYGTSLLGGSVGYPYGGSGFGSYGSGYGYGYGYGYGYGGYTDPRAAKGFMLAMAAFCFIAALVIFVTSVIRSEMSRTRRYYLSVIIVSAILGIMVFIATIVYIMGVNPTAQSSGSLYGSQIYALCNQFYTPAATGLYVDQYLYHYCVVDPQEAIAIVLGFMIIVAFALIIFFAVKTRRKMDRYDKSNILWDKEHIYDEQPPNVEEWVKNVSAGTQDVPSPPSDYVERVDSPMAYSSNGKVNDKRFYPESSYKSTPVPEVVQELPLTSPVDDFRQPRYSSGGNFETPSKRAPAKGRAGRSKRTEQDHYETDYTTGGESCDELEEDWIREYPPITSDQQRQLYKRNFDTGLQEYKSLQSELDEINKELSRLDKELDDYREESEEYMAAADEYNRLKQVKGSADYKSKKNHCKQLKSKLSHIKKMVGDYDRQKT
With B3, the binding entry in test [1] and in test [2] was “no binding” throughout.
